Structures can show the parent of a compound that is named as a salt. The list shows a part of the results. The calls rarely recur for the same compound in another form.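 Kinases, fused to nanoluciferase, were expressed in K562 cells; luminescence was measured every 4 h from 2 to 18 h as percent of control (DMSO = 100%, positive control = 0%). A time point is decreased if signal falls significantly (2 sigma). Hits were called by the authors by a rule that is not shown; the count of time points alone does not decide it.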
The molecules below were run against FLT3 (UniProt P36888) (assay: number of time points (of 5) at which kinase-Nluc abundance scored as decreased, DMSO-normalised (count); higher = more persistent destabilization). Conditions: K562; 2-18 h.

Protein sequences, listed by entry. Tags and fused reporters are not part of them.
UniProt P36888, whole entry: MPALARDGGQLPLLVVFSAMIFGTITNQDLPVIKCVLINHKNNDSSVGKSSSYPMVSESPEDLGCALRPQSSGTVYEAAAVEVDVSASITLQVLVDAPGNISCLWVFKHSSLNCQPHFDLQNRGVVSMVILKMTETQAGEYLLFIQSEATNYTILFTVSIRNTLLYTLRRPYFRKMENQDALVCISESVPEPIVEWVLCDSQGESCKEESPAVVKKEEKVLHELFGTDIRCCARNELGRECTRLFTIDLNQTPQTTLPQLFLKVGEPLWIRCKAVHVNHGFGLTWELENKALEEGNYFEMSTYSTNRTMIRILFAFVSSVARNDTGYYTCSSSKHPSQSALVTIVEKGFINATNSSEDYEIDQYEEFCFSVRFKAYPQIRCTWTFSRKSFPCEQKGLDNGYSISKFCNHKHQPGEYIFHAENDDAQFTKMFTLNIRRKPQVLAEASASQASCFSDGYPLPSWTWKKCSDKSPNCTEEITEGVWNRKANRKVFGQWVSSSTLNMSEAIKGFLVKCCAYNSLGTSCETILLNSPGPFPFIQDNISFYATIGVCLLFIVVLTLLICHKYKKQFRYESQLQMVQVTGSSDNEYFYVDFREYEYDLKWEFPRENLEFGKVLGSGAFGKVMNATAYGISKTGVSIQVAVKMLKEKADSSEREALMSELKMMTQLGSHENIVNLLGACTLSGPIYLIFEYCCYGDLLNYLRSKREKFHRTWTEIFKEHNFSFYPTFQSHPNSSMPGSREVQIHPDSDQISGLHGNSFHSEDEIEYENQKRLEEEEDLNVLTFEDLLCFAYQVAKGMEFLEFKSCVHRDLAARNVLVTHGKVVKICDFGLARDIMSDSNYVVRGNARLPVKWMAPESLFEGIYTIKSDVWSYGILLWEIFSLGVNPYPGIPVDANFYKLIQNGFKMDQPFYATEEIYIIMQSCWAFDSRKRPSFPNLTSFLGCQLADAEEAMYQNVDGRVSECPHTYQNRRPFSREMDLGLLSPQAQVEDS

| Structure (SMILES) | number of time points |
| --- | --- |
| Cc1cnc(Cl)nc1-c1ccc(N(Cc2ccc(CNC(=O)C(F)F)cc2)C(=O)c2ccc(O)cc2O)cc1 (10 µM) | 0 |
| COc1cc2c(cc1OC)[C@@H]1C(=O)c3ccc4c(c3O[C@@H]1CO2)C=CC(C)(C)O4 [Deguelin] (10 µM) | 0 |
| CC(C)(CCCCCC(O)CCCCCC(C)(C)C(=O)O)C(=O)O [Bempedoic acid] (10 µM) | 0 |
| COc1cc2nnc(C(N)=O)c(Nc3ccc(C)cc3F)c2cc1N1CCN(CCO)CC1 (2.5 µM) | 0 |
| O=C(Nc1ccc(Cl)cc1)C1CN(C(=O)c2cccc(-c3ccco3)c2)CC(F)(F)C1 (stereo not drawn) (2.5 µM) | 1 |
| CC(=O)O[C@@H]1[C@@H](OC(C)=O)[C@@H](O)[C@H](Oc2c(-c3ccc(O)cc3)oc3cc(O)cc(O)c3c2=O)O[C@H]1C (10 µM) | 0 |
| COc1cc2nc(-c3cc(F)ccc3O)nc(N[C@@H]3CNC[C@H]3C(C)(C)O)c2cc1OC (2.5 µM) | 0 |
| C=CC(=O)Nc1cccc(Oc2nc(Nc3ccc(N4CCN(C)CC4)cc3OC)ncc2Cl)c1 (10 µM) | 0 |
| C=CC(=O)Nc1cc(Nc2nccc(-c3cn(C)c4ccccc34)n2)c(OCC(F)(F)F)nc1N(C)CCNC [AST5902  (trimesylate)] (2.5 µM) | 0 |
| O=C1C=CC2=C3c4cc(O)c(O)cc4CC3(O)COC2=C1O (stereo not drawn) [Hematein] (10 µM) | 0 |
| CCC(F)(F)c1cc(N2CCC(S(C)(=O)=O)CC2)nc2sc(C(N)=O)c(N)c12 (10 µM) | 0 |
| Cn1cc(C2=C(c3ccc(Cl)cc3Cl)C(=O)NC2=O)c2ccccc21 (10 µM) | 0 |
| CCOC(=O)c1c(N2CCc3ccc(OC)cc3C2)oc(C=C2C=Nc3ncccc32)c1O (10 µM) | 0 |
| O=C(COc1ccc(Cl)cc1)NC1CCC(NC(=O)COc2ccc(Cl)cc2)CC1 (stereo not drawn) [ISRIB (trans-isomer)] (10 µM) | 0 |
| COc1ccc(CCNCc2ccc(OCc3ccc(Cl)nc3)c(OC)c2)cc1OC [SBE13 (Hydrochloride)] (10 µM) | 0 |
| Cc1cccc(CC(=O)N2CCc3c2ccc(-c2cn(C)c4ncnc(N)c24)c3F)n1 (10 µM) | 0 |
| COc1cc(N2CCC(N3CCN(C)CC3)CC2)ccc1Nc1ncnc(Nc2ccccc2S(=O)(=O)C(C)C)n1 (10 µM) | 0 |
| CC(C)(Oc1ccc(Cl)cc1)C(=O)Nc1ccc(OCc2ccc(C#N)cc2)cc1 [AMPK activator 4] (10 µM) | 0 |
| Cc1cc(N2CCOCC2)ccc1Nc1nc(NC2CCCCC2)c2[nH]cnc2n1 (10 µM) | 0 |

Nine entries out of the list, arranged by number of heavy atoms, ascending.

| Structure (SMILES) | number of time points |
| --- | --- |
| O=C1C=CC2=C3c4cc(O)c(O)cc4CC3(O)COC2=C1O (stereo not drawn) [Hematein] (10 µM) | 0 |
| Cn1cc(C2=C(c3ccc(Cl)cc3Cl)C(=O)NC2=O)c2ccccc21 (10 µM) | 0 |
| Cc1cc(N2CCOCC2)ccc1Nc1nc(NC2CCCCC2)c2[nH]cnc2n1 (10 µM) | 0 |
| O=C(Nc1ccc(Cl)cc1)C1CN(C(=O)c2cccc(-c3ccco3)c2)CC(F)(F)C1 (stereo not drawn) (2.5 µM) | 1 |
| COc1cc2nc(-c3cc(F)ccc3O)nc(N[C@@H]3CNC[C@H]3C(C)(C)O)c2cc1OC (2.5 µM) | 0 |
| CCOC(=O)c1c(N2CCc3ccc(OC)cc3C2)oc(C=C2C=Nc3ncccc32)c1O (10 µM) | 0 |
| CC(=O)O[C@@H]1[C@@H](OC(C)=O)[C@@H](O)[C@H](Oc2c(-c3ccc(O)cc3)oc3cc(O)cc(O)c3c2=O)O[C@H]1C (10 µM) | 0 |
| Cc1cnc(Cl)nc1-c1ccc(N(Cc2ccc(CNC(=O)C(F)F)cc2)C(=O)c2ccc(O)cc2O)cc1 (10 µM) | 0 |
| C=CC(=O)Nc1cc(Nc2nccc(-c3cn(C)c4ccccc34)n2)c(OCC(F)(F)F)nc1N(C)CCNC [AST5902  (trimesylate)] (2.5 µM) | 0 |

The results go on.

| Structure (SMILES) | number of time points |
| --- | --- |
| COC(=O)N1CCN(C2CCC(Nc3nc(Nc4cnn(C)c4)nc4ccc(CC#N)nc34)CC2)CC1 (stereo not drawn) (10 µM) | 0 |
| CN(C)CCn1cc2cc(NC(=O)c3cccc(C(F)(F)F)n3)c(C(C)(C)O)cc2n1 (10 µM) | 0 |
| CCOc1cc(N2CCC(O)CC2)ccc1Nc1ncc2c(n1)N(C1CCCC1)CCC(=O)N2C (2.5 µM) | 0 |
| CCC[C@H](C)Oc1nc(N)c2[nH]c(=O)n(CCCCCN3CCCCC3)c2n1 (10 µM) | 0 |
| Fc1ccc(-c2nc3n(c2-c2ccncc2)CCS3)cc1 (10 µM) | 0 |
| CC(ONC(=O)c1cc(C(F)(F)F)cc(C(F)(F)F)c1)C(=O)Nc1ccc(Cl)cc1 (stereo not drawn) (2.5 µM) | 0 |
| O=C(Nc1ccccc1C(=O)NC1CCCCNC1=O)c1cc2ccccc2s1 (stereo not drawn) (10 µM) | 0 |
| N#CC(=C(/N)Sc1ccccc1N)/C(C#N)=C(\N)Sc1ccccc1N (10 µM) | 0 |
| Nc1ccc(O)c(C(=O)O)c1 [5-Aminosalicylic Acid] (10 µM) | 0 |
| CNCc1ccccc1Sc1cccc2ccccc12 [IFN alpha-IFNAR-IN-1 (hydrochloride)] (10 µM) | 0 |
| CCCCNc1ncc2c(-c3ccc(F)cc3)nn(CC3CCC(N)CC3)c2n1 (stereo not drawn) (2.5 µM) | 0 |
| Cc1ncsc1-c1ccc(CNC(=O)[C@@H]2C[C@@H](O)CN2C(=O)[C@@H](NC(=O)COCCOc2ccc(-c3cc(Nc4ccc(OC(F)(F)F)cc4)ncn3)cc2)C(C)(C)C)cc1 (2.5 µM) | 4 |
| Cn1cnc2c(F)c(Nc3ccc(Br)cc3F)c(C(=O)NOCCO)cc21 [Binimetinib] (10 µM) | 0 |
| O=C1NC(=O)C(Cc2c[nH]c3c(Cl)cccc23)N1 (stereo not drawn) [Necroptosis-IN-1] (10 µM) | 0 |
| C=CC(=O)N1CCC(c2ccc(C(N)=O)c(-c3ccc(Oc4ccccc4)cc3)n2)CC1 [Orelabrutinib] (2.5 µM) | 0 |
| CN1C(=O)N[C@@H](Cc2c[nH]c3c(Cl)cccc23)C1=O [Necrostatin 2 (S enantiomer)] (10 µM) | 0 |
| N#Cc1cc(-c2ccnc(Nc3ccc(N4CCOCC4)cc3)n2)ccc1OC1CCOCC1 (10 µM) | 0 |
| COc1cccc(-c2cc(=O)c3ccccc3o2)c1N (10 µM) | 0 |
| Nc1ccc(Sc2nc3ccccc3s2)c(Cl)c1 [KRAS inhibitor-9] (10 µM) | 0 |
